The record followed here is patent CN117126283A.

Chains of the proteins cited; added tags and fusions are not shown. Lines headed by an entry give the natural chain unless they say otherwise; changes in a name come on top.
UniProt P00747: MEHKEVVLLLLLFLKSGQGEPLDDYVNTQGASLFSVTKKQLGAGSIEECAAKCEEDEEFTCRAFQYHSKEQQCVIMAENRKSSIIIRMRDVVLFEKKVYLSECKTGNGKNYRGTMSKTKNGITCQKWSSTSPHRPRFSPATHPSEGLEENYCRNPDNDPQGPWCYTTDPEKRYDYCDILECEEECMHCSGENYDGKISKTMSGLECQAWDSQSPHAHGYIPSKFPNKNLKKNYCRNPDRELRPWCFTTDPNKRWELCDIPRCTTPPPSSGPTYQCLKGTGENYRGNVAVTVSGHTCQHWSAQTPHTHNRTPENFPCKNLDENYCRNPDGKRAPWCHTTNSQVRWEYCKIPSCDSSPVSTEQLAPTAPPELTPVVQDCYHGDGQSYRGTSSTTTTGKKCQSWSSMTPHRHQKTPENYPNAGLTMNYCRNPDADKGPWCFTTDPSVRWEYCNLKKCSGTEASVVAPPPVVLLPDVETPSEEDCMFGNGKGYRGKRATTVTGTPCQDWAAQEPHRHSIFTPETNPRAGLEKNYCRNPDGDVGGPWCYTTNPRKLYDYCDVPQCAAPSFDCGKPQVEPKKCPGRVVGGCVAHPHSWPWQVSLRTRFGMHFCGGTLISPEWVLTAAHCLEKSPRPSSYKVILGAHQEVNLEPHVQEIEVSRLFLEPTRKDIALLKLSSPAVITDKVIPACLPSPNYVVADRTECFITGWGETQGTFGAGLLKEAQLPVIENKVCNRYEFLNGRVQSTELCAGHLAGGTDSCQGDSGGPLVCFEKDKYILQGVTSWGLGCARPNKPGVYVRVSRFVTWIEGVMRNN

Results are given in words; binding and its absence hold for the method and conditions named. Some results given as binding are weak or reduced against the parent protein; the word gives no strength.

The target of assay [1] is 纤溶酶-α2纤溶酶抑制剂复合物(PIC) (UniProt P00747). In words: summing-up of the examples.
The target is the same in assay [2]. In words: indirect ELISA of hybridoma supernatants on coated PIC. In general terms: In an ELISA, binding on a coated surface is turned into a signal by an enzyme label.

B1: PIC抗体(WT1) (antibody, mouse IgG1, kappa, V domains shown)
VH: QVQLQQSGPELVKPGASVKLSCKASGNAFSSSWMNWVKQRPGQGLEWIGRIYPGDGDTNYNGKFKGKATLTVDKSSSTVYMQLSSLTSVDSAVYFCGRGNPTTAYAMDYWGQGTSVTVSS
VL: DIVLTQSPASLAVSLGQRATLSCRASESVDSFGYSFMHWYQQNPGQPPKLLIYRASNLESGIPARFSGSGSRTDFTLTINPVEADDVATYFCQQTNEDPYTFGGGAKLEIKR
Consider B1, for which the binding entry in assay [1] and in assay [2] was “binds” throughout.

B2: PIC抗体(WT2) (antibody, mouse IgG1, kappa, V domains shown)
VH: QVQLQQPGAELVRPGASVKLSCKASGYTFTSSWMHWVKQRPEQGLEWIGYIDPYDSETHYNQKFKDKAILTVDKSSSTAYMQLSSLTSEDSAVYYCARGYDRSFDYWGQGTTLTVSS
VL: DIKMTQSPSSMFASLGERVTITCKASQDIKSFLNWYQQKPWRSPKTLIYYATSLADGVPSRFSGSGSGQDFSLTISSLESDDAATYYCLQHGESPFTFGGGTKLEIKR
B2: the binding entry in assay [1] and in assay [2] was “binds” in each case.
